Results are given in words; binding and its absence hold for the method and conditions named. Binding seen in cells or lysates may run through a third protein. Some entries that bind do so weakly or less than the wild type.
Target: HA-tagged human STING (STING-HA) (human) (UniProt Q86WV6)
Experiment: co-IP; HEK293T cells transfected with STING-HA for 24 hrs, with or without GS (10 μM) for 2 hrs; RIPA lysates incubated with antibodies for 12 hrs at 4°C, protein G agarose beads, immunoblot

The chains behind the UniProt entries cited, without tags or fusion partners.
UniProt Q86WV6: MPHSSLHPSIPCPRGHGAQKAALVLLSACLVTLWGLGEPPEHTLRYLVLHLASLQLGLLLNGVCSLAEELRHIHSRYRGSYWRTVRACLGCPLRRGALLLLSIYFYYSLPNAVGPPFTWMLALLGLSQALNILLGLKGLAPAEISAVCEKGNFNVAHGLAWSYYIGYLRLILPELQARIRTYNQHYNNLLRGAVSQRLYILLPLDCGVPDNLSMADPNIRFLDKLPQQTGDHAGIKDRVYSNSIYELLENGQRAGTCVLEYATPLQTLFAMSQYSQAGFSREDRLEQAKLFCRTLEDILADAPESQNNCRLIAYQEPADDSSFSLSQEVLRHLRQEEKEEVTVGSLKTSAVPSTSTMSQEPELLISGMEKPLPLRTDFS
UniProt P19474: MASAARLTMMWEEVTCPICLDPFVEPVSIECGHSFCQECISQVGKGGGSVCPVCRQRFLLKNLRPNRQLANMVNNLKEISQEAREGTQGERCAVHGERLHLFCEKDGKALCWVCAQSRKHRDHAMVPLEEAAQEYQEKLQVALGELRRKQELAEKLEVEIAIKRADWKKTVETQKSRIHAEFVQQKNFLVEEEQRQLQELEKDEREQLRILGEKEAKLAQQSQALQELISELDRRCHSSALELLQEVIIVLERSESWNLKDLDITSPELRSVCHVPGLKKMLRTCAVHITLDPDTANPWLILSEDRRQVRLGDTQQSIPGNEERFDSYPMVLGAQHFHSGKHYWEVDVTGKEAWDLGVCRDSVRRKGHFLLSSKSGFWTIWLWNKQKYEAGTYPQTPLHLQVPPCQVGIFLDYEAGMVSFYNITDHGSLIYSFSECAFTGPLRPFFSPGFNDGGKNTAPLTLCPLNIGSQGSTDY

TRIM21 (from UniProt P19474 1-475)
binding: binds

Reference: article PMC10424845, “Gelsevirine is a novel STING-specific inhibitor and mitigates STING-related inflammation in sepsis” (Frontiers in Immunology, 2023)
